Measurements as given in publication PMC9905200.
These are yes or no findings as the source states them, for the method shown. In cells and extracts the contact can be indirect. Some entries that bind do so weakly or less than the wild type.

The chains behind the UniProt entries cited, without tags or fusion partners. Where a name states a change or a piece, a line headed by the entry shows the natural chain unless it says otherwise. A line that says so, or that is headed by a name, gives the form on record, which may keep a tag or linker. Residues count along the entry.
human apolipoprotein E3 (APOE3) in APOE3 targeted replacement mouse liver (P02649, residues 19-317): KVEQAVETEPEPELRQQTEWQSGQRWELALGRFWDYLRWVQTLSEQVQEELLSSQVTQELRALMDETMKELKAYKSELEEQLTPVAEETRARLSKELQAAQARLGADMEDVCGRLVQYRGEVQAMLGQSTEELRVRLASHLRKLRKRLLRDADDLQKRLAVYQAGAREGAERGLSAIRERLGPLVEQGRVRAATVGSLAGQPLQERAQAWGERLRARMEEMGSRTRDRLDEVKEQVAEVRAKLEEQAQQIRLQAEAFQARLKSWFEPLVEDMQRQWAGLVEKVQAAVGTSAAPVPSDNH
human apolipoprotein E4 (APOE4) in APOE4 targeted replacement mouse liver (P02649, form named): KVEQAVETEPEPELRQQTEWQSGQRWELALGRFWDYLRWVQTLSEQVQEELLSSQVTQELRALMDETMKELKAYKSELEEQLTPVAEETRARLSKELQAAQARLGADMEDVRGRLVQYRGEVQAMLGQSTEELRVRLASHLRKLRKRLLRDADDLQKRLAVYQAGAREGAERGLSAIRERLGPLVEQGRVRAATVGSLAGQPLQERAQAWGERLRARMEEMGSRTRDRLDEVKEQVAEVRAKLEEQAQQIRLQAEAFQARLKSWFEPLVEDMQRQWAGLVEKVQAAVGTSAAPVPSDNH
UniProt P21796: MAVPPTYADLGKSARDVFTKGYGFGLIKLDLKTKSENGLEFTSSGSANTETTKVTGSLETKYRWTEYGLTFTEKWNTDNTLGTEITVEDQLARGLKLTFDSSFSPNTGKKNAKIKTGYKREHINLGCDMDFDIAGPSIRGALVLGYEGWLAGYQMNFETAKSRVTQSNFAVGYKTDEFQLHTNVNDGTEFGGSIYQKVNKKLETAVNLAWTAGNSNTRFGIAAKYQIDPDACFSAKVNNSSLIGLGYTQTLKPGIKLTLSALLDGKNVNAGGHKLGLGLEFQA

Assays:
[1] = target: human apolipoprotein E4 (APOE4) expressed in transfected Huh7 cells (human) (UniProt P02649); assay: co-IP; APOE precipitated with anti-APOE antibody (sc-13521) and Protein G Sepharose from lysates (NP40 lysis buffer, 4 °C) of APOE3- or APOE4-transfected Huh7 cells, Western blot
[2] = target: human apolipoprotein E3 (APOE3) expressed in transfected Huh7 cells (human) (UniProt P02649); assay: as above
[3] = target: human apolipoprotein E4 (APOE4) expressed in transfected Huh7 cells (human) (UniProt P02649); assay: proximity ligation; in situ in intact fixed, permeabilized Huh7 cells transfected to express APOE3 or APOE4; PLA signals per cell counted; controls: no antibody, APOE negative control, BCKDHA-HH3 PLA, nontransfected cells
[4] = target: human apolipoprotein E3 (APOE3) expressed in transfected Huh7 cells (human) (UniProt P02649); assay: as above
[5] = target: human apolipoprotein E4 (APOE4) in APOE4 targeted replacement mouse liver (human) (UniProt P02649); assay: co-IP; APOE precipitated with anti-APOE antibody (sc-13521) and Protein G Sepharose from liver lysates (NP40 lysis buffer, 4 °C) of male APOE TR mice, Western blot of the eluates; mice fed ad libitum (AL) or under 30% dietary restriction (DR); interactions stronger upon DR
[6] = target: human apolipoprotein E3 (APOE3) in APOE3 targeted replacement mouse liver (human) (UniProt P02649); assay: as above

Measured: binding

voltage-dependent anion-selective channel 1 (VDAC1), human, in Huh7 cells (from UniProt P21796 1-283)
binds: [1] | [2] | [3] | [4]

B1: branched-chain alpha-keto acid dehydrogenase subunit alpha (BCKDHA), human, in Huh7 cells (protein, UniProt P12694 46-445)
chain: SSLDDKPQFPGASAEFIDKLEFIQPNVISGIPIYRVMDRQGQIINPSEDPHLPKEKVLKLYKSMTLLNTMDRILYESQRQGRISFYMTNYGEEGTHVGSAAALDNTDLVFGQYREAGVLMYRDYPLELFMAQCYGNISDLGKGRQMPVHYGCKERHFVTISSPLATQIPQAVGAAYAAKRANANRVVICYFGEGAASEGDAHAGFNFAATLECPIIFFCRNNGYAISTPTSEQYRGDGIAARGPGYGIMSIRVDGNDVFAVYNATKEARRRAVAENQPFLIEAMTYRIGHHSTSDDSSAYRSVDEVNYWDKQDHPISRLRHYLLSQGWWDEEQEKAWRKQSRRKVMEAFEQAERKPKPNPNLLFSDVYQEMPAQLRKQQESLARHLQTYGEHYPLDHFDK
binds: [1] | [2] | [3] | [4]

B2: branched-chain alpha-keto acid dehydrogenase (BCKD) complex subunit alpha (BCKDHA), mouse liver (protein, UniProt P50136 43-442)
chain: PSLDDKPQFPGASAEFVDKLEFIQPNVISGIPIYRVMDRQGQIINPSEDPHLPQEEVLKFYRSMTLLNTMDRILYESQREGRISFYMTNYGEEGTHVGSAAALERTDLVFGQYREAGVLMYRDYPLELFMSQCYGNVNDPGKGRQMPVHYGCKERHFVTISSPLATQIPQAVGAAYAAKRANANRIVICYFGEGAASEGDAHAGFNFAATLECPIIFFCRNNGYAISTPTSEQYRGDGIAARGPGYGIKSIRVDGNDVFAVYNATKEARRRAVAENQPFLIEAMTYRIGHHSTSDDSSAYRSVDEVNYWDKQDHPISRLRQYLLNQGWWDEEQEKAWRKQSRKKVMEAFEQAERKLKPNPSLLFSDVYQEMPAQLRRQQESLARHLQTYGEHYPLDHFEK
binds: [5] | [6]
